Measurements published in PubChem BioAssay AID330 (DTP/NCI, 2004).
The list is a part of this screen's results and no random one: it is rich in T/C values a quarter to a half above the control, in often repeated tests (any T/C) and in doses without a T/C. Further doses and runs are listed elsewhere. T/C: endpoint of the treated group in % of that of the vehicle group. Some doses have a count of surviving animals in place of a T/C: the source holds a T/C of zero for them, seemingly a mark for toxic or unscored doses. Some survivor counts are full or nearly so, which does not show that the dose was tolerated: the source hardly ever lists a survival T/C far under the control, and the zero likely stands for such cases as well. Counts of survivors are from the toxicity check (mostly the fifth day) where no day follows; animals may have died later. Schedule codes are those of the source, taken here to give the interval after Q, in days (D) or hours (H), and the number of doses after X. Some entries were tested several times; the results are listed from low to high. For survival time, the PubChem record calls one and a half times the control and up active, and a quarter to a half above the control has no call in these data; cut-offs in other NCI protocols can differ. Some T/C values are followed by the survivors on the day toxicity was checked, most often the fifth; without a count, all were alive then.

System: P388 leukemia ip, CD2F1 mice, survival T/C
Experiment: NCI In Vivo Anticancer Drug Screen. Data for tumor model P388 Leukemia (intraperitoneal) in CD2F1 (CDF1) mice
Details: T/C endpoint: median survival time, higher T/C = longer survival
[1] = dose: 25.0 mg/kg/injection, schedule: Q01DX001 (ip), vehicle: Klucel (hydroxypropylcellulose) (HPC)
[2] = dose: 100.0 mg/kg/injection, schedule: Q01DX001 (ip), vehicle: Klucel (hydroxypropylcellulose) (HPC)
[3] = dose: 200.0 mg/kg/injection, schedule: Q01DX001 (ip), vehicle: Klucel (hydroxypropylcellulose) (HPC)
[4] = dose: 100.0 mg/kg/injection, schedule: Q01DX005 (ip), vehicle: saline with Tween-80
[5] = dose: 200.0 mg/kg/injection, schedule: Q01DX005 (ip), vehicle: saline with Tween-80
[6] = dose: 400.0 mg/kg/injection, schedule: Q01DX001 (ip), vehicle: Klucel (hydroxypropylcellulose) (HPC)
[7] = dose: 100.0 mg/kg/injection, schedule: Q04DX003 (ip), vehicle: saline with Tween-80
[8] = dose: 120.0 mg/kg/injection, schedule: Q01DX005 (ip), vehicle: saline with Tween-80
[9] = dose: 240.0 mg/kg/injection, schedule: Q01DX005 (ip), vehicle: saline with Tween-80
[10] = dose: 200.0 mg/kg/injection, schedule: Q01DX009 (ip), vehicle: saline with Tween-80
[11] = dose: 100.0 mg/kg/injection, schedule: Q01DX009 (ip), vehicle: saline

With `O=C1CC(c2ccc(Cl)cc2)C(c2ccc(Cl)cc2)C1C(=O)OC1CCCCC1` (stereo unspecified) the survivor count (dose: 12.5 mg/kg/injection, schedule: Q01DX001 (ip), vehicle: Klucel (hydroxypropylcellulose) (HPC)) was 6 of 6, the survivor count [1] was 6 of 6 and the survivor count (dose: 50.0 mg/kg/injection, schedule: Q01DX001 (ip), vehicle: Klucel (hydroxypropylcellulose) (HPC)) was 6 of 6. The survivor count [2] was 5 of 6 and the survivor count [3] was 6 of 6.
For `O=C(NCC(O)CNC(=O)Nc1ccc(C2=NCC(O)CN2)cc1)Nc1ccc(C2=NCC(O)CN2)cc1` (stereo unspecified), the survivor count [4] was 1 of 6 and the survivor count [5] was 0 of 6.
In the case of `CCOC1CC(C)(O)C(C(=O)OC)c2cc3c(c(O)c21)C(=O)c1c(O)cc2c(c1C3=O)OC1OC2(C)C(O)C(N(C)C)C1O` (stereo unspecified), the T/C (dose: 1.6 mg/kg/injection, schedule: Q01DX009 (ip), vehicle: other) was 141 % of control and the survivor count (dose: 25.0 mg/kg/injection, schedule: Q01DX009 (ip), vehicle: other) was 6 of 6.
`CCC1OCC(C(Cl)CCl)O1` (stereo unspecified) was tested, and the survivor count (dose: 400.0 mg/kg/injection, schedule: Q01DX005 (ip), vehicle: saline with Tween-80) was 0 of 6.
For `c1cc2cc3c(cc2o1)OC[C@H]1c2cc4c(cc2O[C@@H]31)OCO4`, the survivor count [6] was 6 of 6.
For `O=C1OC2=C(CCCCC2)C(N2CCCCC2)C12SCCCS2` (stereo unspecified), the T/C [7] was 131 % of control.
For `CC(=O)OCC1OC([Se-])C(OC(C)=O)C(OC(C)=O)C1OC(C)=O.N#CCC[PH+](CCC#N)CCC#N.[Au+]` (stereo unspecified), the T/C [8] was 126 % of control and the T/C [9] was 131 % of control [5 of 6 alive].
For `CCOP1(OCC)(SSC)OC(=O)C(C)S1` (stereo unspecified), the survivor count [8] was 2 of 6 and the survivor count [9] was 0 of 6.
In the case of `C=C(C)C(=NC(C)C)Nc1ccccc1`, the T/C (dose: 50.0 mg/kg/injection, schedule: Q01DX005 (ip), vehicle: Klucel (hydroxypropylcellulose) (HPC), evaluated on day 20) was 104 % of control, the T/C (dose: 50.0 mg/kg/injection, schedule: Q01DX005 (ip), vehicle: Klucel (hydroxypropylcellulose) (HPC), evaluated on day 30) was 103 [5 of 6 alive], 107, 118 % of control and the survivor count (dose: 100.0 mg/kg/injection, schedule: Q01DX005 (ip), vehicle: Klucel (hydroxypropylcellulose) (HPC)) was 1 of 6. For the same compound, the survivor count (dose: 200.0 mg/kg/injection, schedule: Q01DX005 (ip), vehicle: Klucel (hydroxypropylcellulose) (HPC)) was 0 of 6.
`CC(=O)CN1CCSC1=N` was tested, and the survivor count (dose: 200.0 mg/kg/injection, schedule: Q01DX001 (ip), vehicle: saline) was 3 of 6 and the survivor count (dose: 400.0 mg/kg/injection, schedule: Q01DX001 (ip), vehicle: saline) was 0 of 6.
`CCCCC(CCCCCC(CCCC)C1NCCc2cc(OC)c(OC)cc21)C1NCCc2cc(OC)c(OC)cc21` (stereo unspecified) was tested, and the survivor count (dose: 50.0 mg/kg/injection, schedule: Q01DX005 (ip), vehicle: saline with Tween-80) was 2 of 5, the survivor count [4] was 0 of 5 and the survivor count [5] was 0 of 5.
`O=NNc1ncccn1` was tested, and the T/C (dose: 200.0 mg/kg/injection, schedule: Q01DX009 (ip), vehicle: water) was 130 % of control.
`COc1ccccc1[N+]([O-])=NC#N` was tested, and the survivor count (dose: 50.0 mg/kg/injection, schedule: Q04DX003 (ip), vehicle: Klucel (hydroxypropylcellulose) (HPC)) was 0 of 6, the survivor count (dose: 100.0 mg/kg/injection, schedule: Q04DX003 (ip), vehicle: Klucel (hydroxypropylcellulose) (HPC)) was 0 of 6 and the survivor count (dose: 200.0 mg/kg/injection, schedule: Q04DX003 (ip), vehicle: Klucel (hydroxypropylcellulose) (HPC)) was 0 of 6.
With `CCN(CC)CCNC(=S)N/N=C(C)\C(C)=N/NC(=S)NCCN(CC)CC` the survivor count (dose: 50.0 mg/kg/injection, schedule: Q01DX009 (ip), vehicle: saline with Tween-80) was 1 of 6, the survivor count (dose: 100.0 mg/kg/injection, schedule: Q01DX009 (ip), vehicle: saline with Tween-80) was 0 of 6 and the survivor count [10] was 0 of 6.
With `CCCCOC1NC(=O)Oc2ccccc21` (stereo unspecified) the T/C [9] was 137 % of control and the survivor count (dose: 480.0 mg/kg/injection, schedule: Q01DX005 (ip), vehicle: saline with Tween-80) was 0 of 6.
`C=C1C(=O)OC2C3OC(C)(CCC(O)C3COC(C)=O)CC(OC(=O)/C(=C/C)COC(C)=O)C12` (stereo unspecified) was tested, and the survivor count (dose: 3.0 mg/kg/injection, schedule: Q01DX009 (ip), vehicle: suspension in saline) was 6 of 6, the survivor count (dose: 6.0 mg/kg/injection, schedule: Q01DX009 (ip), vehicle: suspension in saline) was 5 of 6 and the survivor count (dose: 6.25 mg/kg/injection, schedule: Q01DX009 (ip), vehicle: Klucel (hydroxypropylcellulose) (HPC)) was 1 of 6. The survivor count (dose: 12.0 mg/kg/injection, schedule: Q01DX009 (ip), vehicle: suspension in saline) was 1 of 6, the survivor count (dose: 12.5 mg/kg/injection, schedule: Q01DX009 (ip), vehicle: Klucel (hydroxypropylcellulose) (HPC)) was 4 of 6 and the survivor count (dose: 24.0 mg/kg/injection, schedule: Q01DX009 (ip), vehicle: suspension in saline) was 0 of 6. For the same compound, the survivor count (dose: 25.0 mg/kg/injection, schedule: Q01DX009 (ip), vehicle: Klucel (hydroxypropylcellulose) (HPC)) was 0 of 6.
For `Cc1cc[n+](C2=C(Nc3ccc(Cl)cc3C)C(=O)c3ccccc3C2=O)cc1`, the survivor count [8] was 0 of 6 and the survivor count [9] was 0 of 6.
In the case of `CC1C(=O)OC2C1CCC1(C)CCC(=O)C(C)C21` (stereo unspecified), the survivor count (dose: 200.0 mg/kg/injection, schedule: Q04DX002 (ip), vehicle: saline with Tween-80) was 2 of 6 and the survivor count (dose: 400.0 mg/kg/injection, schedule: Q04DX002 (ip), vehicle: saline with Tween-80) was 0 of 6.
With `NCCC[Se]CC(N)C(=O)O` (stereo unspecified) the survivor count (dose: 200.0 mg/kg/injection, schedule: Q04DX003 (ip), vehicle: saline) was 4 of 6 and the survivor count (dose: 400.0 mg/kg/injection, schedule: Q04DX003 (ip), vehicle: saline) was 6 of 6.
`[CH3][Ge]([CH3])([CH3])[N]=S=[N][Ge]([CH3])([CH3])[CH3]` was tested, and the survivor count [4] was 1 of 6 and the survivor count [5] was 0 of 6.
`Cc1ccc(NC(=O)Oc2ccc(F)cc2Cl)c([N+](=O)[O-])c1` was tested, and the survivor count [10] was 4 of 6.
For `CCNC(=O)OCc1c(-c2ccccc2)nc2n1CCS2`, the survivor count [1] was 6 of 6, the survivor count [2] was 0 of 6 and 5 of 6 and the survivor count [3] was 0 of 6. The survivor count [6] was 0 of 6.
`Fc1cccc(NC(=S)SCc2ccc(Cl)cc2)c1` was tested, and the survivor count (dose: 50.0 mg/kg/injection, schedule: Q01DX009 (ip), vehicle: suspension in saline) was 6 of 6 and the survivor count (dose: 200.0 mg/kg/injection, schedule: Q01DX009 (ip), vehicle: suspension in saline) was 5 of 6.
`Cc1cc(N(CCCl)CCCl)c(C)cc1NC(=O)c1ccccc1` was tested, and the T/C (dose: 25.0 mg/kg/injection, schedule: Q04DX003 (ip), vehicle: saline with Tween-80) was 127 % of control and the survivor count [7] was 6 of 6.
With `c1ccc(CC[n+]2ccccc2)cc1` the survivor count (dose: 50.0 mg/kg/injection, schedule: Q01DX009 (ip), vehicle: saline) was 2 of 6 and the survivor count [11] was 0 of 6.
In the case of `[B-]1n2ccc[n+]2[B-]n2ccc[n+]21`, the survivor count (dose: 60.0 mg/kg/injection, schedule: Q01DX005 (ip), vehicle: saline with Tween-80) was 6 of 6, the survivor count [8] was 2 of 6 and the survivor count [9] was 0 of 6.
For `Clc1ccc2ccc3ccccc3c2n1`, the survivor count [11] was 6 of 6 and the survivor count (dose: 200.0 mg/kg/injection, schedule: Q01DX009 (ip), vehicle: saline) was 6 of 6.
`COc1cc(/C=C/C(NC(C)=O)c2cccc(O)c(=O)c2)cc(OC)c1OC` (stereo unspecified) was tested, and the survivor count (dose: 50.0 mg/kg/injection, schedule: Q01DX009 (ip), vehicle: Klucel (hydroxypropylcellulose) (HPC)) was 6 of 6.
